Melanoma cell counts after drug treatment

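Human melanoma cells were exposed to two drugs together for 72 h in 1,536-well plates and read by automated microscopy after fixing and staining. The read-out is cell count (nuclei) in % of the DMSO control; lower values mean stronger growth inhibition or killing. Every drug was used at one fixed concentration, the higher of two screened. These are primary screening values without error estimates.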
This is part of the screen, not chosen by result.

Drug key:
vorinostat (0.4 µM): O=C(CCCCCCC(=O)Nc1ccccc1)NO
SNS-032 (0.05 µM): CC(C)(C)c1cnc(CSc2cnc(NC(=O)C3CCNCC3)s2)o1
VX-702 (2 µM): NC(=O)c1ccc(N(C(N)=O)c2c(F)cccc2F)nc1-c1ccc(F)cc1F
decitabine (0.5 µM): Nc1ncn([C@H]2C[C@H](O)[C@@H](CO)O2)c(=O)n1
AZD7762 (0.1 µM): NC(=O)Nc1cc(-c2cccc(F)c2)sc1C(=O)N[C@H]1CCCNC1
SNS-314 (0.004 µM): O=C(Nc1cccc(Cl)c1)Nc1ncc(CCNc2ncnc3ccsc23)s1
veliparib (7 µM): C[C@]1(c2nc3c(C(N)=O)cccc3[nH]2)CCCN1
CX-4945 (2 µM): O=C(O)c1ccc2c(c1)nc(Nc1cccc(Cl)c1)c1ccncc12
Src-I1 (10 µM): COc1cc2ncnc(Nc3ccc(Oc4ccccc4)cc3)c2cc1OC
GW9662 (10 µM): O=C(Nc1ccccc1)c1cc([N+](=O)[O-])ccc1Cl
KU-55933 (5 µM): O=c1cc(-c2cccc3c2Sc2ccccc2S3)oc(N2CCOCC2)c1
tamatinib (2 µM): COc1cc(Nc2ncc(F)c(Nc3ccc4c(n3)NC(=O)C(C)(C)O4)n2)cc(OC)c1OC
U73122 (2 µM): COc1ccc2c(c1)CCC1C2CCC2(C)C(NCCCCCCN3C(=O)C=CC3=O)CCC12 (centres unmarked)
indole-3-carbinol (4 µM): OCc1c[nH]c2ccccc12
JZL184 (5 µM): O=C(Oc1ccc([N+](=O)[O-])cc1)N1CCC(C(O)(c2ccc3c(c2)OCO3)c2ccc3c(c2)OCO3)CC1
LFM-A13 (10 µM): C/C(O)=C(\C#N)C(=O)Nc1cc(Br)ccc1Br
vismodegib (5 µM): CS(=O)(=O)c1ccc(C(=O)Nc2ccc(Cl)c(-c3ccccn3)c2)c(Cl)c1
AS-252424 (5 µM): O=C1NC(=O)/C(=C/c2ccc(-c3ccc(F)cc3O)o2)S1
BI-78D3 (1 µM): O=c1[nH]nc(Sc2ncc([N+](=O)[O-])s2)n1-c1ccc2c(c1)OCCO2
OSU-03012 (5 µM): NCC(=O)Nc1ccc(-n2nc(C(F)(F)F)cc2-c2ccc3c(ccc4ccccc43)c2)cc1

- SNS-314 + U73122 : COLO 792: 85.4; C32: 48.9; COLO 829: 82.2; COLO 800: 47.1
- indole-3-carbinol + tamatinib : COLO 792: 40.6; C32: 83.3; COLO 829: 109; COLO 800: 49.2
- VX-702 + decitabine : COLO 792: 79.8; C32: 84.9; COLO 829: 64.9; COLO 800: 96.8
- AZD7762 + vorinostat : COLO 792: 50.2; C32: 56.9; COLO 829: 77.8; COLO 800: 38.9
- VX-702 + vorinostat : COLO 792: 78.7; C32: 87.5; COLO 829: 67.2; COLO 800: 105
- KU-55933 + SNS-032 : COLO 792: 77.3; C32: 71.4; COLO 829: 109; COLO 800: 67.1
- BI-78D3 + Src-I1 : COLO 792: 67.6; C32: 101; COLO 829: 106; COLO 800: 99.8
- U73122 + JZL184 : COLO 792: 107; C32: 79.9; COLO 829: 101; COLO 800: 85.2
- VX-702 + CX-4945 : COLO 792: 71.1; C32: 117; COLO 829: 39.1; COLO 800: 82.3
- AS-252424 + veliparib : COLO 792: 86.9; C32: 92.9; COLO 829: 104; COLO 800: 58.0
- LFM-A13 + vismodegib : COLO 792: 113; C32: 125; COLO 829: 103; COLO 800: 84.5
- OSU-03012 + GW9662 : COLO 792: 76.8; C32: 84.2; COLO 829: 43.8; COLO 800: 60.5

2 of the entries, repeated:

Combination	COLO 792	C32	COLO 829	COLO 800
AS-252424 + veliparib	86.9	92.9	104	58.0
VX-702 + CX-4945	71.1	117	39.1	82.3

From a melanoma drug combination screen (doi:10.1371/journal.pone.0140310); values rounded.